The list shows a part of the results. Repeats are few or missing, and single values can be far off.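 Imaging used 1,536-well plates; nuclei positive for cleaved PARP by antibody were divided by total DNA-stained nuclei to yield the apoptosis fraction. Doses for screening kept most cells viable, and cell lines differ markedly in resting and induced cleaved-PARP levels.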

In the test the test system is IST-MEL1. The test can be described thus: cleaved PARP positive nuclei fraction relative to DMSO control; melanoma cells; higher = more apoptosis. Particulars: library dose: low library concentration; 72 h.
On to `O=C(O)[C@@H]1[O][Sb](=[O])([O][Sb]2(=[O])[O][C@H]([C@H](O)CO)[C@H](O)[C@H](C(=O)O)[O]2)[O][C@H]([C@H](O)CO)[C@@H]1O` (stereo not given in full) [stibogluconate] + C#Cc1cccc(Nc2ncnc3cc(OCCOC)c(OCCOC)cc23)c1 [erlotinib] (first compound 2 µM, partner dose 0.8 µM), for which the “cleaved PARP positive nuclei fraction” value came out at 122%.
The value for `C=C(c1ccc(C(=O)O)cc1)c1cc2c(cc1C)C(C)(C)CCC2(C)C` [Bexarotene] + Nc1nc(F)nc2c1ncn2[C@@H]1O[C@H](CO)[C@@H](O)[C@@H]1O [fludarabine] (first compound 2 µM, partner dose 0.2 µM) was 266%.
The same measure for `CNC(=O)c1cc(Oc2ccc(NC(=O)Nc3ccc(Cl)c(C(F)(F)F)c3)cc2)ccn1` [sorafenib] + C=CCNC1=C2C[C@@H](C)C[C@H](OC)[C@H](O)[C@@H](C)/C=C(\C)[C@H](OC(N)=O)[C@@H](OC)/C=C\C=C(/C)C(=O)NC(=CC1=O)C2=O [Tanespimycin] (first compound 0.4 µM, partner dose 0.002 µM): 137%; for `Cn1c(=O)n(-c2ccc(C(C)(C)C#N)cc2)c2c3cc(-c4cnc5ccccc5c4)ccc3ncc21` + Nc1ncn([C@H]2C[C@H](O)[C@@H](CO)O2)c(=O)n1 [decitabine] (first compound 0.004 µM, partner dose 0.1 µM): 72.5%; for `CC(C)C[C@H](NC(=O)[C@H](Cc1ccccc1)NC(=O)c1cnccn1)B(O)O` [Bortezomib] + C=C(c1ccc(C(=O)O)cc1)c1cc2c(cc1C)C(C)(C)CCC2(C)C [Bexarotene] (first compound 0.001 µM, partner dose 2 µM): 136%.

(Values after the supplement of paper PMC4604168 (melanoma cell lines).)
